These results are taken from article PMC4684408.

What all share (test): filter binding
The target of data set [1] is Gk-S15 (UniProt Q5L0I3). Conditions: 50 mM Tris/acetate pH 7.5, 20 mM Mg-acetate, 270 mM KCl, 5 mM DTT, 0.02% BSA, RNA <1 nM, 30 min at 25 C (thermophile RNAs also at 55 C); recombinant protein; label: 5'-32P, 3'-[32P]pCp also tried.
Data set [2] concerns the target Rr-S15 (UniProt A0ABD5LGG5). The following applies: 50 mM Tris/acetate pH 7.5, 20 mM Mg-acetate, 270 mM KCl, 5 mM DTT, 0.02% BSA, RNA <1 nM, 30 min at 25 C (thermophile RNAs also at 55 C), recombinant protein, label: 5'-32P.
In data set [3] the target is Tt-S15 (Thermus thermophilus) (UniProt Q5SJ76). The following applies: 50 mM Tris/acetate pH 7.5, 20 mM Mg-acetate, 270 mM KCl, 5 mM DTT, 0.02% BSA, RNA <1 nM, 30 min at 25 C (thermophile RNAs also at 55 C), recombinant protein, label: 5'-32P.
Data set [4] deals with Ec-S15 (Escherichia coli) (UniProt P0ADZ4). Conditions: 50 mM Tris/acetate pH 7.5, 20 mM Mg-acetate, 270 mM KCl, 5 mM DTT, 0.02% BSA, RNA <1 nM, 30 min at 25 C (thermophile RNAs also at 55 C); recombinant protein; label: 5'-32P; letters put together from the description.
Setting [5] is: letters put together from the description.

The exact form of at least one protein or probe is not confirmed. Where only a bound is given, the exact number is not on record here.

For “ACUGGGAUCGCUGAAUUAGAGAUCGGCGUCCUUUCAUUCUAUAUACUUUGGAGUUUUAAAAUGUCUCUAAGUACUGAAGCAACAGCU [Ec-mRNA WT]”, the Kd was over 400 nM in data set [1], over 1000 nM in data set [2] (3'-[32P]pCp also tried) and over 500 nM in data set [3] (3'-[32P]pCp also tried).

On to “GGCUUGGCGGGAGACCGCCAAAUGGAGGAAGGGGCUCAAAGCGCCUUCCCGCCUGACGGAGGGAAAACAUGCCCAUCACGAA [Tt-mRNA M1]”, for which the equilibrium dissociation constant (Kd) in data set [4], in data set [2] (setting [5]) and in data set [3] (setting [5]) was over 500 nM throughout.

With “GGCUUGGCGGGAGACCGCCUCGAGGAGGAAGGGGCUCAAAGCGCCUUCCCGCCUGACGGAGGGAAAACAUGCCCAUCACGAA [Tt-mRNA WT]”, the Kd in data set [4] and in data set [2] (setting [5]) was over 500 nM each time.

The term Kd denotes the equilibrium constant for the complex coming apart.
